Assay results published in article PMC9223716.
These are yes or no findings as the source states them, for the method shown. Binding seen in cells or lysates may run through a third protein. Binding calls can cover weak binding; strength is not graded here.

Biological target: T1, Inositol 1,4,5-triphosphate receptor-associated 2 (IRAG2) (mouse (endogenous in murine platelets)) (UniProt Q60664)
T1 sequence: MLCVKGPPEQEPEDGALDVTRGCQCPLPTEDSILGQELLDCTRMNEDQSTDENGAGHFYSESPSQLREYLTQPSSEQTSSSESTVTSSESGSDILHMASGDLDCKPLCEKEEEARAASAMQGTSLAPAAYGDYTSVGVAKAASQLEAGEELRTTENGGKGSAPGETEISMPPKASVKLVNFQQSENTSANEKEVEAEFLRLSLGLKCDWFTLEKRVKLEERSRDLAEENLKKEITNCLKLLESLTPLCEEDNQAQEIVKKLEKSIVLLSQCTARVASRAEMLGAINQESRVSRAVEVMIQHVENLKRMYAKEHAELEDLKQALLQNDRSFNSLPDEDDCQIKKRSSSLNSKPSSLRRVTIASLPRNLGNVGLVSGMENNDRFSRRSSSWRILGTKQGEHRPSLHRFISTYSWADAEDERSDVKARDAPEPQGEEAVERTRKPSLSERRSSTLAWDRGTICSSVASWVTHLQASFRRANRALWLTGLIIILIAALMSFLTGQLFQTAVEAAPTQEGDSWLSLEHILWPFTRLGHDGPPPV
Test: co-IP; IRAG2 precipitated with anti-mouse LRMP (C-terminal) antibody and Protein-A-Sepharose from 1000 µg platelet lysate of IRAG2-WT and IRAG2-KO mice; 50 mM Tris HCl, 15 mM EGTA, 100 mM NaCl, 0.1% Triton X-100, pH 7.5, 1 mM DTT; Western Blot of partners

binding: binds weakly
Substance: IP3 receptor type 2 (IP3R2) (mouse (endogenous in murine platelets))
